Some results were stated once for a whole list of compounds, not compound by compound.
Assay: Encapsulation efficiency and loading of cargoes in thin-shell hollow PLGA nanoparticles
Format: physicochemical
Details: cargo in thin-shell hollow PLGA nanoparticles

For cyclic cGAMP, the encapsulation efficiency was “above 30%”.

Reference: US20240180845A1, “THIN-SHELL POLYMERIC NANOPARTICLES AND USES THEREOF” (Academia Sinica, priority 2016, published 2024)
